The target of experiment [1] is T1, transmembrane protein 63A (TMEM63A), endogenous in goat PBMC (goat (endogenous in PBMC)).
T1 sequence: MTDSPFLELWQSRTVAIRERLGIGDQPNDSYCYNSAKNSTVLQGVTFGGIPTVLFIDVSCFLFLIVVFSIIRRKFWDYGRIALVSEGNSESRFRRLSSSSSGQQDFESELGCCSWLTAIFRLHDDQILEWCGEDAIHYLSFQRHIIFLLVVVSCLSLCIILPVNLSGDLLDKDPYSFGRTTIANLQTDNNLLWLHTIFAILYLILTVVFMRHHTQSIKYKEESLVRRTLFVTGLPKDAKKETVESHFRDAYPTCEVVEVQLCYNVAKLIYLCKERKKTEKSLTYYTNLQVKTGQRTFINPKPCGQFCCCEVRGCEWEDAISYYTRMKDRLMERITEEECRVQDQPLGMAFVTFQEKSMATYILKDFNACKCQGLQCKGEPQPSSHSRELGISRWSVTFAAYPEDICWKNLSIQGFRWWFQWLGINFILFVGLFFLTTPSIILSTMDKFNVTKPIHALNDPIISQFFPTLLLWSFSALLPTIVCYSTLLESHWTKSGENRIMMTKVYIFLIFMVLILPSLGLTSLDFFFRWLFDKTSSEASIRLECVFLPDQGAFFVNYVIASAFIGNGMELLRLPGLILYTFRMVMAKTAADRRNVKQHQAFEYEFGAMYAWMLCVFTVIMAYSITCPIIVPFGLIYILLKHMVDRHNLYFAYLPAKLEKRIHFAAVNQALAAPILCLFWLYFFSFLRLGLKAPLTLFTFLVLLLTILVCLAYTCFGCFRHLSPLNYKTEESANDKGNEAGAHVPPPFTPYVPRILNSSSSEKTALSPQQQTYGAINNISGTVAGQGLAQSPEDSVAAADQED
The experiment is described as follows: co-IP; reverse IP: goat PBMC incubated with rMNh or rMCh for 12 h, washed and lysed; 1 mg lysate precipitated overnight at 4 °C with rat anti-TMEM63A-NO or anti-TMEM147-O IgG and Protein A/G agarose; blot with anti-MNh or anti-MCh IgG; normal rat IgG as control; only the binder purified.

Experiment [2] deals with T2, transmembrane protein 147 (TMEM147), endogenous in goat PBMC (goat (endogenous in PBMC)) (UniProt I6VSD2).
T2 sequence: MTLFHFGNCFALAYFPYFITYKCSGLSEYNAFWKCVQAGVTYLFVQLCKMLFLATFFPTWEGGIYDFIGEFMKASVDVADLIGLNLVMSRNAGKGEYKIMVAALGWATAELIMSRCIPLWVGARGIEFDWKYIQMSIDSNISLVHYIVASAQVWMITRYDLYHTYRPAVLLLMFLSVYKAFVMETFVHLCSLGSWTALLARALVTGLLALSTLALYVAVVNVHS
The experiment is described as above.

For experiment [3], the target named is recombinant C-terminal carbohydrate recognition domain of Hco-gal-m (rMCh) (Haemonchus contortus). The experiment is described as follows: co-IP; forward IP: goat PBMC incubated with rMNh or rMCh for 12 h, washed and lysed; 1 mg lysate precipitated overnight at 4 °C with rat anti-MNh or anti-MCh IgG and Protein A/G agarose; blot with anti-TMEM63A-NO or anti-TMEM147-O IgG; normal rat IgG as control; only the target purified.

For experiment [4], the target named is recombinant N-terminal carbohydrate recognition domain of Hco-gal-m (rMNh) (Haemonchus contortus). The experiment is described as above.

Results are given in words; binding and its absence hold for the method and conditions named. Binding seen in cells or lysates may run through a third protein. Binding calls can cover weak binding; strength is not graded here.

For the molecule “recombinant N-terminal carbohydrate recognition domain of Hco-gal-m (rMNh) (Haemonchus contortus) (domain or fragment)”, the binding result in experiment [1] is on record as “binds”.
Turning to “recombinant C-terminal carbohydrate recognition domain of Hco-gal-m (rMCh) (Haemonchus contortus) (domain or fragment)”, the binding entry in experiment [2] is “binds”.

B1: transmembrane protein 147 (TMEM147), endogenous in goat PBMC (receptor, UniProt I6VSD2 1-224)
chain: T2 sequence
Turning to B1, in experiment [3], the binding entry is listed as “binds”.

B2: transmembrane protein 63A (TMEM63A), endogenous in goat PBMC (receptor, UniProt A0A452G813 1-803)
chain: T1 sequence
Turning to B2, the binding entry in experiment [4] is given as “binds”.

Source of the values: PMC5584048.
